Laboratory results taken from paper PMC7862700.
The entries are a selection whose mix differs from that of the whole data set. At the low end of the ranking the order means little.

Amino acid sequences for entries named in this document (tags omitted). A change or cut given only in a name is not applied to a line headed by its entry.
UniProt Q9Y603: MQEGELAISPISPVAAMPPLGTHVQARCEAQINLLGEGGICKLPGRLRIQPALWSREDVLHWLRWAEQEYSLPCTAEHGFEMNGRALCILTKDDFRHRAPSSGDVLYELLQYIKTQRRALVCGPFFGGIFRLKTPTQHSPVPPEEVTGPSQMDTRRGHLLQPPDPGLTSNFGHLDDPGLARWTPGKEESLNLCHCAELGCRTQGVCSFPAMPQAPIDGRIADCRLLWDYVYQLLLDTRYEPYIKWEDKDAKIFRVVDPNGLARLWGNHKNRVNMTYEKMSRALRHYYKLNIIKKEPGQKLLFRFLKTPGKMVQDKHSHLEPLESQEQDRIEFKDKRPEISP
UniProt P41212: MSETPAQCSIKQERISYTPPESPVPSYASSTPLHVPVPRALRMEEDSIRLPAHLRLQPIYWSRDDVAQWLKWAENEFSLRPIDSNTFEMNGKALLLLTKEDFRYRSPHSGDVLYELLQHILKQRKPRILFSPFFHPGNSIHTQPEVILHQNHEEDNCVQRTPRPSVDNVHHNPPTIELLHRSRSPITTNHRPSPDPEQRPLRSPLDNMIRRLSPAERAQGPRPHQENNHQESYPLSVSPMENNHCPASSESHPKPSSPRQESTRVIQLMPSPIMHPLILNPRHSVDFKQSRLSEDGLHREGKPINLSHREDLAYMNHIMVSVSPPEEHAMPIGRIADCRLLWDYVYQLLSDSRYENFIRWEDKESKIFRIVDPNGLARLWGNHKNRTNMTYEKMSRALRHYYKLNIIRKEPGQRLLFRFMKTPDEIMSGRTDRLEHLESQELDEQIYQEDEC

biological target: T1, ELF3 (UniProt P78545); experiment: DAPPL (digital affinity profiling via proximity ligation, sequencing); conditions: 10 mM Tris-HCl pH 7.5, 50 mM NaCl, 1 mM DTT, 4% glycerol, room temperature, 30 min; GST-TFs on glutathione beads, 16-mer random dsDNA library, 0.1% …; high values mean tight binding; double strand, one strand shown; scale: fold enrichment (6-mer frequency, TF over GST control)
T1 sequence: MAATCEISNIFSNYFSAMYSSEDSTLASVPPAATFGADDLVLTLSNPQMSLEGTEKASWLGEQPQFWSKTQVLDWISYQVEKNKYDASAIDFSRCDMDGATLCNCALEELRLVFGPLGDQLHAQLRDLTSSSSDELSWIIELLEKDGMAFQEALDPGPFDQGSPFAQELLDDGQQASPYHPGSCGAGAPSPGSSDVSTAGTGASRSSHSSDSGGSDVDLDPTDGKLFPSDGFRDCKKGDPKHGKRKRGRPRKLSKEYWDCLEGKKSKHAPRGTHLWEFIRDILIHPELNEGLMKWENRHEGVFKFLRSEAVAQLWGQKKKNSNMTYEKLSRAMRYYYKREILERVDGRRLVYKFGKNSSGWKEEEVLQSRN

| Sequence | binding signal |
| --- | --- |
| GCAACG | 0.931 |
| GTGTAG | 0.572 |
| GTGAGT | 0.123 |
| GCGTAC | 0.812 |
| GACCAT | 0.912 |
| TGGAGG | 0.442 |
| CAGTAC | 0.873 |
| CGGGCC | 0.748 |
| TTGTCG | 0.769 |
| GGTCGG | 0.228 |
| TCGGGA | 0.441 |
| GGGGCC | 0.512 |
| AGCGGG | 0.458 |
| AGAGGA | 0.779 |
| TCAGAA | 0.884 |
| AGGCAG | 0.567 |
| TCGGAC | 0.344 |
| GCATGG | 0.839 |
| CGGTAC | 0.882 |
| AGCGAG | 0.626 |

| Sequence | binding signal |
| --- | --- |
| AAGGTG | 0.967 |
| CCCGTG | 0.574 |
| CGTTGA | 0.779 |
| TCAGGC | 0.683 |
| GGTAAG | 0.775 |
| GGTTCG | 0.879 |
| TCAGTC | 0.697 |
| CCAGGT | 0.76 |
| GGCGTC | 0.845 |
| GCGGGG | 0.377 |
| GGGAGT | 0.219 |
| GGCATG | 0.904 |
| GGTGTA | 0.981 |
| CCAGCC | 0.749 |
| GATTGA | 0.938 |
| GCGAGC | 0.829 |
| GCATCA | 0.778 |
| GTAGTG | 0.728 |
| GAGTGT | 0.445 |

biological target: ETV7 (UniProt Q9Y603); experiment: as above; conditions: 10 mM Tris-HCl pH 7.5, 50 mM NaCl, 1 mM DTT, 4% glycerol, room temperature, 30 min; GST-TFs on glutathione beads, 16-mer random dsDNA library, 0.1% …; high values mean tight binding; double strand, one strand shown; scale: fold enrichment (6-mer frequency, TF over GST control)

| Sequence | binding signal |
| --- | --- |
| GCAACG | 0.9 |
| GTGTAG | 0.814 |
| GTGAGT | 0.17 |
| GCGTAC | 0.931 |
| GACCAT | 0.841 |
| TGGAGG | 0.571 |
| CAGTAC | 0.847 |
| CGGGCC | 0.811 |
| TTGTCG | 0.853 |
| GGTCGG | 0.334 |
| TCGGGA | 0.392 |
| GGGGCC | 0.547 |
| AGCGGG | 0.545 |
| AGAGGA | 0.672 |
| TCAGAA | 0.886 |
| AGGCAG | 0.628 |
| TCGGAC | 0.394 |
| GCATGG | 0.878 |
| CGGTAC | 0.866 |
| AGCGAG | 0.741 |

| Sequence | binding signal |
| --- | --- |
| AAGGTG | 0.907 |
| CCCGTG | 0.542 |
| CGTTGA | 0.851 |
| TCAGGC | 0.713 |
| GGTAAG | 0.787 |
| GGTTCG | 0.785 |
| TCAGTC | 0.634 |
| CCAGGT | 0.741 |
| GGCGTC | 0.747 |
| GCGGGG | 0.574 |
| GGGAGT | 0.277 |
| GGCATG | 0.878 |
| GGTGTA | 0.863 |
| CCAGCC | 0.763 |
| GATTGA | 0.966 |
| GCGAGC | 0.839 |
| GCATCA | 0.714 |
| GTAGTG | 0.881 |
| GAGTGT | 0.614 |

biological target: ETV6 (UniProt P41212); experiment: as above; conditions: 10 mM Tris-HCl pH 7.5, 50 mM NaCl, 1 mM DTT, 4% glycerol, room temperature, 30 min; GST-TFs on glutathione beads, 16-mer random dsDNA library, 0.1% …; high values mean tight binding; double strand, one strand shown; scale: fold enrichment (6-mer frequency, TF over GST control)

| Sequence | binding signal |
| --- | --- |
| GCAACG | 0.94 |
| GTGTAG | 0.679 |
| GTGAGT | 0.142 |
| GCGTAC | 0.924 |
| GACCAT | 0.821 |
| TGGAGG | 0.478 |
| CAGTAC | 0.839 |
| CGGGCC | 0.732 |
| TTGTCG | 0.859 |
| GGTCGG | 0.297 |
| TCGGGA | 0.352 |
| GGGGCC | 0.579 |
| AGCGGG | 0.469 |
| AGAGGA | 0.701 |
| TCAGAA | 0.943 |
| AGGCAG | 0.546 |
| TCGGAC | 0.35 |
| GCATGG | 0.812 |
| CGGTAC | 0.907 |
| AGCGAG | 0.632 |

| Sequence | binding signal |
| --- | --- |
| AAGGTG | 0.891 |
| CCCGTG | 0.492 |
| CGTTGA | 0.751 |
| TCAGGC | 0.688 |
| GGTAAG | 0.727 |
| GGTTCG | 0.775 |
| TCAGTC | 0.618 |
| CCAGGT | 0.701 |
| GGCGTC | 0.774 |
| GCGGGG | 0.415 |
| GGGAGT | 0.232 |
| GGCATG | 0.803 |
| GGTGTA | 0.786 |
| CCAGCC | 0.736 |
| GATTGA | 0.908 |
| GCGAGC | 0.85 |
| GCATCA | 0.732 |
| GTAGTG | 0.805 |
| GAGTGT | 0.532 |
